Results are given in words; binding and its absence hold for the method and conditions named. In cells and extracts the contact can be indirect. A result given as binding can be weak or reduced; the word gives no strength. Sequences can lack the tags named with a protein.

Amino acid sequences for entries named in this document (tags omitted). A change or cut given only in a name is not applied to a line headed by its entry.
UniProt Q9XF91: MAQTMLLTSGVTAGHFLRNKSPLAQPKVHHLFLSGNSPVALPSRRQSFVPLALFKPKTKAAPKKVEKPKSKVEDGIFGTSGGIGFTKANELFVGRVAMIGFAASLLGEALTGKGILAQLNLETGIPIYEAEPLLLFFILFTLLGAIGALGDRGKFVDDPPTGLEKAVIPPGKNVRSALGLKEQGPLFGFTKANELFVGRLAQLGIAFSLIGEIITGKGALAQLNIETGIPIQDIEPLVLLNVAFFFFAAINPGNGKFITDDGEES
UniProt Q9SYW8: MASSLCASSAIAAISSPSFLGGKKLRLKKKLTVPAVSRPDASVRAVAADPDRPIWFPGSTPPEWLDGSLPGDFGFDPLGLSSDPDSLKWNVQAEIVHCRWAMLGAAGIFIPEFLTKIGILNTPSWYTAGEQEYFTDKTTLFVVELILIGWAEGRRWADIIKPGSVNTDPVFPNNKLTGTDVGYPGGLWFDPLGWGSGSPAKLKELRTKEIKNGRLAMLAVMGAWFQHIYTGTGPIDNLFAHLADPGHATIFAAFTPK
UniProt Q9S7N7: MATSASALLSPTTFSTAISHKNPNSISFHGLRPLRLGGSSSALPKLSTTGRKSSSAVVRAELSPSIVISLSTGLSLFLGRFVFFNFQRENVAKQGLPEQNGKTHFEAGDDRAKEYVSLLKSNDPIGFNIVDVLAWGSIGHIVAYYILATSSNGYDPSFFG

This is an account of results in publication PMC5853960.

The target of the assay is T1, QQT1–nLUC (Arabidopsis thaliana) (UniProt Q56XY2).
T1 sequence: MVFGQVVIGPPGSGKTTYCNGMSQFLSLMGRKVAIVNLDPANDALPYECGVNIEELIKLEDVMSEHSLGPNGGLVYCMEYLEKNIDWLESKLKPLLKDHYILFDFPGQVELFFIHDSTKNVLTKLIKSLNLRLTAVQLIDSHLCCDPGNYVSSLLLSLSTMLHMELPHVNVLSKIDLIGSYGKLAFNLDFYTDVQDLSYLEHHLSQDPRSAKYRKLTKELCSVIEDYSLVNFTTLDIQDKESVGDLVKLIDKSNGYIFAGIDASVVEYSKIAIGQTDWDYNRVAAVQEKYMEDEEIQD
Put plainly: split reporter; firefly luciferase complementation imaging (LCI): nLUC and cLUC fusions co-expressed by agroinfiltration (with p19) in N. benthamiana leaves for 2 d; 1 mM luciferin sprayed, LUC images taken.

With U11/U12-59K protein, LCI construct, the binding result is listed as “no binding”. For “PSII subunit S (PSBS)–cLUC (from UniProt Q9XF91)” the value was “binds”. On to “U11/U12-65K protein, LCI construct (Arabidopsis thaliana)”, for which the binding result is “no binding”. Under “U11/U12-31K protein, LCI construct (Arabidopsis thaliana)” stands “no binding”; under “PSII light-harvesting complex gene B1B1 (LHCB1)–cLUC (Arabidopsis thaliana)”, “binds”. Under “PSI light-harvesting complex gene 2 (LHCA2)–cLUC (from UniProt Q9SYW8)” stands “binds”; under “PSI subunit G (PSAG)–cLUC (from UniProt Q9S7N7)”, “binds”.
